Experimental data published in article PMC5839403.
Results are given in words; binding and its absence hold for the method and conditions named. Binding seen in cells or lysates may run through a third protein. Binding calls can cover weak binding; strength is not graded here.

Molecular target: T1, VDR (human (endogenous in HL-60)) (UniProt P11473)
T1 sequence: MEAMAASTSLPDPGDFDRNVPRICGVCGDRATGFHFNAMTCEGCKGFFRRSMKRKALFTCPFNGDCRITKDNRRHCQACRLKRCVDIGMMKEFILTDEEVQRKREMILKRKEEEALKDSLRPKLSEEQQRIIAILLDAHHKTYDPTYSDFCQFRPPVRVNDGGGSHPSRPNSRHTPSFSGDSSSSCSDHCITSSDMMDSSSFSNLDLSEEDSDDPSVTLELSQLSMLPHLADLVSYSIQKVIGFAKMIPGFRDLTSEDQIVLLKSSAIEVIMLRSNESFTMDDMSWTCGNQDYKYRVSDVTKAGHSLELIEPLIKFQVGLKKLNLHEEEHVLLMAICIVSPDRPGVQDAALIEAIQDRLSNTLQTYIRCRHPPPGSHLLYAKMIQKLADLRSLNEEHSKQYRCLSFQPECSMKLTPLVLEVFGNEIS
Experiment: co-IP; 250 μg pre-cleared nuclear lysate of HL-60 cells (NE-PER fractionation; untreated, 0.5 μM D3, or D3 plus 10 μM RRD-251, 48 hours) incubated overnight with 3.5 μg precipitating antibody and Protein G magnetic beads, washed 3 times, Western blot

Substance: glycogen synthase kinase-3 (total GSK-3 α/β) (human (endogenous in HL-60))
- binding: binds
